# Results of single-concentration screens

Mtb glucose medium: 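Whole-cell growth test on Mycobacterium tuberculosis, read after 3 days in glucose-containing 7H9 medium; the read-out is not stated. Tested at 50 µM. Higher reads as more growth inhibition (inferred: compounds with an IC50 in retests scored well above the rest). About 69,000 compounds were tested under these conditions; 1.1% (about 760) showed 50% or more at least once.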
Mtb cholesterol medium: 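Phenotypic screen: M. tuberculosis growth, cholesterol and DPPC medium, 4 days; the read-out is not stated. Compounds at 50 µM. Higher reads as more growth inhibition (inferred: compounds with an IC50 in retests scored well above the rest). Size under these conditions: about 69,000 compounds, about 370 of them at 50% or above in at least one test.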

Results are given as percent effect.
The record does not define 0% and 100%; most values in the screen are far below 50% and negative numbers occur (in some assays of this library far below -100).
The compounds are a random part of those screened.
Two or more numbers in one place are separate tests of the same structure; such repeats can differ widely.

| structure | Mtb glucose medium | Mtb cholesterol medium |
|---|---|---|
| `CC(C)c1nc(CN2CCN(CC3CCCO3)CC2)cs1` (configuration not stated) | -14.73 | -12.49 |
| `CC(=O)Nc1nc(C(=O)NC(C)c2cccnc2)cs1` (configuration not stated) | 11.03 | 8.799 |
| `c1ccc(CCN2CCCC2c2cncc(Nc3nncs3)n2)cc1` (configuration not stated) | -16.75 | -11.28 |
| `Cc1cc(C)c(CNC(=O)Cc2ccc3c(c2)CCCC3)c(=O)[nH]1` | -42 & 2.66 | -12.89 |
| `CCc1nccn1-c1cccc(C2CCCN2)n1.Cl.Cl` (configuration not stated) | -2.974 | 16.54 |
| `CNC(=O)c1ccc(C(=O)N2CCCC(n3nc(C)cc3C)C2)cn1` (configuration not stated) | 11.44 | -15.63 |
| `Cc1cc(NC(=O)C(C)NCCn2cccn2)no1` (configuration not stated) | 7.961 & -0.7222 | 10.79 |
| `O=C(O)C(F)(F)F.O=C(O)C(F)(F)F.[H][C@@]12COC[C@]1(COCc1ccncc1)CN(Cc1ccccc1OC)C2` | 20.9 | -19.12 |
| `O=C1CSCN1Cc1nc(-c2ccc(N3CCCCC3)cc2)no1` | -30.57 & 8.597 | 21.17 |
| `Fc1cnc(N2CCOC3(CCN(Cc4ccsc4)CC3)C2)nc1.O=C(O)C(F)(F)F.O=C(O)C(F)(F)F` | -7.101 | -6.786 |
| `O=C(CCC1CCCC1)NCc1nnc2ccccn12` | 47.71 | 11.18 |
| `O=C(c1cnc(-c2ccccc2)nc1)N1CCOC2(CCCC2)C1` | -10.3 | -2.53 |
| `CC(=O)N1CCN(Cc2ccsc2)CC2(CC(=O)N(C)C2)C1.O=C(O)C(F)(F)F` (configuration not stated) | 4.627 | -12.02 & 0.2209 |
| `COc1cc(C)nc(N2CCN(C(=O)c3cc(C)no3)CC2)n1` | 33.82 | -22.31 |
| `c1ccc(OCc2nc(CNCCn3cccn3)cs2)cc1` | 13.27 & -26.2 | -6.33 |
| `O=c1cc(N2CCCCC2)cnn1CC(O)C(F)(F)F` (configuration not stated) | 16.59 | 10.85 & -1.76 |
| `CN(C)C(=O)c1cn2cc(-c3cccc(Cl)c3)n(CC3CC3)c(=O)c2n1` | 9.826 | 29.94 |
| `CSc1nccc(N2CCC(NCc3nc(C)cc(C)n3)CC2)n1` | 1.354 | -0.359 |
| `CCN1CCN(CCNC(=O)c2sc(C(C)C)nc2C)CC1` | -19.2 | -25.61 |
| `CC(c1ccc(Cl)cc1)N1CCN(CCCS(C)(=O)=O)CC1` (configuration not stated) | -20.75 | -10.29 & 1.474 |
| `Nc1cc2c(nn1)CCN(C(=O)c1ccccc1Oc1cccnc1)C2` | -31.42 | -11.21 |
| `CNC(=O)CCc1cc(C)nc(C2CCCCN2)n1` (configuration not stated) | -3.869 | 17.22 |
| `CN(Cc1ccsc1)C(=O)CN1CCCC(Cn2cncn2)C1` (configuration not stated) | 16.43 | -7.869 |
| `COC(=O)N1CC2(CCNCC2)c2cc(Cl)ccc21.Cl` | 19.44 | 7.835 & -2.382 |
| `CN(C)C(=O)c1ccc2c(c1)N(C)C(CC(=O)NC(CO)CO)CO2` (configuration not stated) | 5.142 | -18.08 |
| `[H][C@]12CNCCN1C[C@@H](c1ccccc1)[C@@H]2C(=O)NC` | 0.6695 | 4.657 |
| `Cc1cc(CN2CCN(Cc3ccccc3F)CC2)no1` | 13.62 & -3.476 | -22.18 |
| `COc1cccc2c1OCCCN(c1nc(C)nc3c1CCNCC3)C2` | 35.23 | 13.85 |
| `Cc1cc(C)c(CNc2ncnc3ccsc23)c(=O)[nH]1` | -3.638 | -4.952 |
| `CCc1n[nH]c(C2CN(C(=O)c3ncoc3C(C)C)CCO2)n1` (configuration not stated) | 24.79 | 8.819 |
| `COc1ccc(-c2noc(C3CC(C(C)C)=NO3)n2)cc1` (configuration not stated) | 39.44 | 23.73 |
| `Cc1nc(-c2ccsc2)sc1C(=O)N1CCn2c(C)nnc2C1` | 3.889 | -6.568 |
| `Cc1cnn(CC2CCCN2CC(=O)Nc2cc(C)on2)c1` (configuration not stated) | 24.24 | 11.73 |
| `CCN(C(=O)C(C)S(=O)(=O)Cc1nc(C)no1)c1ccccc1` (configuration not stated) | 8.982 | -1.319 |
| `C[C@H](c1ccc(F)cc1)n1c(C2CCC2)n[nH]c1=O` | -21.16 | -12.62 |
| `CNc1cc(N2CCCC2CNCc2ccc(Cl)o2)ncn1` (configuration not stated) | 27.48 | -14.1 & 9.162 |
| `CC(C)CN1CCCC(c2nc(O)c3cc(F)ccc3n2)C1` (configuration not stated) | 17.3 | -4.253 |
| `CCOCCN1CCN(CCCc2nnnn2-c2ccccc2)CC1` | 2.328 & -5.769 | -5.785 |
| `CS(=O)(=O)CCSc1cccc(C#N)c1` | -7.222 & -2.024 | -3.161 |
| `[H][C@@]12CN(S(=O)(=O)c3ccc(C#N)cc3)C[C@]1([H])OCCN2C(C)C` | -5.073 & -27.99 | -6.418 |
| `O=C(O)C(F)(F)F.[H][C@@]12CO[C@@H](CNC(=O)c3nccn3C)[C@]1([H])CCN(CC1CC1)C2` | -17.23 | -14.45 |
| `Nc1nccnc1CC1CCCN(Cc2ccnc3ccccc23)C1` (configuration not stated) | -3.158 | -0.7468 |
| `CC(=O)N1CCC(C(=O)NCc2ncc(-c3ccccc3)o2)CC1` | -11 | -22.75 |
| `CCOc1ccc(N2CCCN=C2NC(=O)c2ccc(OC)cc2)cc1` | -4.42 | -32.37 |
| `O=C(c1ccc(N2CCOCC2)nc1)N1CCCC(n2cccn2)C1` (configuration not stated) | 32.55 | 9.577 |
| `CN(Cc1ccc(F)cc1C#N)CC(F)(F)F` | 22.9 | 16.81 |
| `CN1CCC(N(CCc2ccccc2)C(=O)c2ccc(C#N)nc2)CC1` | 15.08 | 0.5334 |
| `O=C(NCCc1nncn1C1CC1)C1SCCc2ccccc21` (configuration not stated) | -28.95 & 7.806 | -7.289 |
| `COc1ncccc1CNC(=O)c1csc(Br)c1` | 22.44 | 6.409 |
| `Cc1occc1C(=O)N1CCCC(C2=Nc3ccccc3S(=O)(=O)N2)C1` (configuration not stated) | -19.46 | -4.207 & 5.098 |
| `Cn1cccc1C(=O)N1CCn2cc(CNC(=O)CC3CC3)nc2C1` | 13.44 | -20.59 |
| `N#Cc1ccc(S(=O)(=O)N2CC(CC(=O)O)c3ccccc32)cc1` (configuration not stated) | 1.255 | 12.99 |
| `Cl.c1cnc(N2CCCC(NCc3cccc4c3OCCO4)C2)nc1` (configuration not stated) | 20.4 | 14.27 |
| `CCCC1CCCN(C(=O)Nc2ccnc(C(=O)N(C)C)c2)CC1` (configuration not stated) | 17.94 | 20.67 |
| `COc1cc(C(=O)N(CCC#N)Cc2ccccn2)ccc1C` | 21.19 | 8.361 & -10.59 |
| `CN(CCc1ncnn1-c1ccccc1Cl)C1CCS(=O)(=O)C1` (configuration not stated) | -13.36 | -19.37 |
| `CN(Cc1ccc(Cl)cc1)S(=O)(=O)N(C)Cc1cnn(C)c1` | -4.93 | 32.28 |
| `O=C1CCN(CCS(=O)(=O)c2ccc(Cl)cc2)CCN1` | 4.683 & 9.317 | 12.98 |
| `CC(C)N(C)S(=O)(=O)N(C)Cc1ccc2c(c1)OCO2` | 23.74 | 7.57 |
| `CCOc1ncccc1CNc1cc(COC)ncn1` | 35.66 | 2.825 |
| `O=C(CCn1cnnc1)N1CCCC(c2ncc[nH]2)C1` (configuration not stated) | -9.621 & -17.48 | -17.8 |
| `COC(=O)c1ccc(N(C(=O)c2ccncc2)C(C)C)c(C)c1` | -27.11 | -6.249 |
| `[H][C@@]12CNCC[C@]1(O)CCN(c1ncccc1Cl)C2` | -3.897 & -10.42 | 8.629 |
| `C[C@@H](O)CNC(=O)c1nc(Cc2c(Cl)cccc2Cl)no1` | 2.103 & -4.966 | 16.17 |
| `O=C(O)C(F)(F)F.O=C(O)C(F)(F)F.[H][C@@]12COC[C@]1(COc1cccnc1)CN(Cc1cccs1)C2` | -4.845 | -12.56 & 5.132 |
| `Cc1nccn1-c1ccc(C(C)NCCC(C)C)cc1` (configuration not stated) | 9.979 & 0.979 | -9.625 |
| `CCCN1CCC(C(=O)NCCN(CC)c2ccccc2C)CC1` | -38.86 | -50.87 |
| `CC(=O)Nc1nc(C)c(S(=O)(=O)NCCc2cccnc2)s1` | 2.573 | -15.48 |
| `Cc1nc(C)c(C(=O)NCCOc2ccc(C(F)(F)F)cn2)o1` | 37.78 | 14.49 |

Some entries from above, unchanged:

| structure | Mtb glucose medium | Mtb cholesterol medium |
|---|---|---|
| `Cl.c1cnc(N2CCCC(NCc3cccc4c3OCCO4)C2)nc1` (configuration not stated) | 20.4 | 14.27 |
| `O=C1CSCN1Cc1nc(-c2ccc(N3CCCCC3)cc2)no1` | -30.57 & 8.597 | 21.17 |
| `CC(C)c1nc(CN2CCN(CC3CCCO3)CC2)cs1` (configuration not stated) | -14.73 | -12.49 |
| `Cc1nc(-c2ccsc2)sc1C(=O)N1CCn2c(C)nnc2C1` | 3.889 | -6.568 |
| `CN(Cc1ccc(Cl)cc1)S(=O)(=O)N(C)Cc1cnn(C)c1` | -4.93 | 32.28 |
| `CCOc1ccc(N2CCCN=C2NC(=O)c2ccc(OC)cc2)cc1` | -4.42 | -32.37 |
| `C[C@@H](O)CNC(=O)c1nc(Cc2c(Cl)cccc2Cl)no1` | 2.103 & -4.966 | 16.17 |

Source: ChEMBL document CHEMBL3988442, “University of Dundee, Small-Polar-MMV Screening Library” (2021).